Source: patent EP2601945A1 (Thomale, Jürgen, priority 2011, dated 2013)

Tests used:
[1] = system: hearing capability; conditions: mouse, in vivo, 57 mg/kg
[2] = system: hearing capability; test: BAER hearing test after repetitive cis-platin with or without DPH, or DPH alone; conditions: DPH administered together with cis-platin, mice (description)

CN(C)CCOC(c1ccccc1)c1ccccc1 [DPH, diphenhydramine] was tested, and the “hearing capability one hour after DPH” value [1] was 70% and the hearing capacity maintained [2] was “more than 80%”.
